For 4 molecules, binding results are on record in publication PMC10112980.

Experiment [1] deals with T1, SUN4 (mouse (endogenous in testis cells)) (UniProt Q9JJF2).
T1 sequence: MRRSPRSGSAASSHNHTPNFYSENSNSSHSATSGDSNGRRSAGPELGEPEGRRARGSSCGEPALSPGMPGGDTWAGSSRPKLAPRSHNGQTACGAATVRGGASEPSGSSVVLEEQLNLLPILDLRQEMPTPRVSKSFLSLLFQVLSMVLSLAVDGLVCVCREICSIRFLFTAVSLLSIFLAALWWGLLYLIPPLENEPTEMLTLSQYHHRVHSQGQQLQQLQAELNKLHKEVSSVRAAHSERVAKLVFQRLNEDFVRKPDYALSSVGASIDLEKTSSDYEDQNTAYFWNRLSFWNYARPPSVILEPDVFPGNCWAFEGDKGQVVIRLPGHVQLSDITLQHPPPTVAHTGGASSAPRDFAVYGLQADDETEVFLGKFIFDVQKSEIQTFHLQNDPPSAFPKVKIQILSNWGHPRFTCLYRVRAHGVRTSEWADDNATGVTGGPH
The experiment in a line: co-IP; testicular cells of wild-type mice; membranes isolated by 8 M urea extraction and centrifugation at 100,000 g, dissolved in RIPA buffer; rabbit anti-SUN4 (NTD) antibody, non-specific rabbit IgG as control; Dynabeads Protein G; western blot.

Experiment [2] deals with T1, SUN4 (mouse (endogenous in testis cells)). As to the kind of experiment: co-IP; testicular cells of wild-type mice lysed directly in RIPA buffer; guinea pig anti-SUN4 NTD antibody, non-specific guinea pig IgG as control; Dynabeads Protein G, 4°C; western blot.

Results are given in words; binding and its absence hold for the method and conditions named. In cells and extracts the contact can be indirect. Some entries that bind do so weakly or less than the wild type.

B1: lamina-associated protein LAP2 (protein, UniProt Q61029 1-452)
chain: MPEFLEDPSVLTKDKLKSELVANNVTLPAGEQRKDVYVQLYLQHLTARNRPPLAAGANSKGPPDFSSDEEREPTPVLGSGASVGRGRGAVGRKATKKTDKPRLEDKDDLDVTELSNEELLDQLVRYGVNPGPIVGTTRKLYEKKLLKLREQGTESRSSTPLPTVSSSAENTRQNGSNDSDRYSDNDEDSKIELKLEKREPLKGRAKTPVTLKQRRTEHNQSYSQAGVTETEWTSGSSTGGPLQALTRESTRGSRRTPRKRVETSQHFRIDGAVISESTPIAETIKASSNESLVANRLTGNFKHASSILPITEFSDITRRTPKKPLTRAEVGEKTEERRVDRDILKEMFPYEASTPTGISASCRRPIKGAAGRPLELSDFRMEESFSSKYVPKYAPLADVKSEKTKKRRSVPMWIKMLLFALVAVFLFLVYQAMETNQGNPFTNFLQDTKISN
Turning to B1, the binding result in experiment [1] is listed as “no binding”.

B2: SUN3 (protein, UniProt Q5SS91 1-320)
chain: MLTRSWKIILSTVFISTFLLVGLLNHQWLKETEFPQKPRQLYTVIAEYGSRLYNYQARLRMPKEQQELLKKESQTLENNFREILFLIEQIDVLKALLKDMKDGVHNHSLPVHRDAVQDQATTDVLDEEMSNLVHYVLKKFRGDQIQLADYALKSAGASVIEAGTSESYKNNKAKLYWHGIGFLNYEMPPDMILQPDVHPGKCWAFPGSQGHILIKLARKIIPTAVTMEHISEKVSPSGNISSAPKEFSVYGVMKKCEGEEIFLGQFIYNKMEATIQTFELQNEASESLLCVKLQILSNWGHPKYTCLYRFRVHGIPSDYT
In the case of B2, the binding result in experiment [1] is recorded as “binds”.

B3: SUN1 (protein, UniProt Q9D666 1-913)
chain: MDFSRLHTYTPPQCVPENTGYTYALSSSYSSDALDFETEHKLEPVFDSPRMSRRSLRLVTTASYSSGDSQAIDSHISTSRATPAKGRETRTVKQRRSASKPAFSINHLSGKGLSSSTSHDSSCSLRSATVLRHPVLDESLIREQTKVDHFWGLDDDGDLKGGNKAATQGNGELAAEVASSNGYTCRDCRMLSARTDALTAHSAIHGTTSRVYSRDRTLKPRGVSFYLDRTLWLAKSTSSSFASFIVQLFQVVLMKLNFETYKLKGYESRAYESQSYETKSHESEAHLGHCGRMTAGELSRVDGESLCDDCKGKKHLEIHTATHSQLPQPHRVAGAMGRLCIYTGDLLVQALRRTRAAGWSVAEAVWSVLWLAVSAPGKAASGTFWWLGSGWYQFVTLISWLNVFLLTRCLRNICKVFVLLLPLLLLLGAGVSLWGQGNFFSLLPVLNWTAMQPTQRVDDSKGMHRPGPLPPSPPPKVDHKASQWPQESDMGQKVASLSAQCHNHDERLAELTVLLQKLQIRVDQVDDGREGLSLWVKNVVGQHLQEMGTIEPPDAKTDFMTFHHDHEVRLSNLEDVLRKLTEKSEAIQKELEETKLKAGSRDEEQPLLDRVQHLELELNLLKSQLSDWQHLKTSCEQAGARIQETVQLMFSEDQQGGSLEWLLEKLSSRFVSKDELQVLLHDLELKLLQNITHHITVTGQAPTSEAIVSAVNQAGISGITEAQAHIIVNNALKLYSQDKTGMVDFALESGGGSILSTRCSETYETKTALLSLFGVPLWYFSQSPRVVIQPDIYPGNCWAFKGSQGYLVVRLSMKIYPTTFTMEHIPKTLSPTGNISSAPKDFAVYGLETEYQEEGQPLGRFTYDQEGDSLQMFHTLERPDQAFQIVELRVLSNWGHPEYTCLYRFRVHGEPIQ
As to B3, the binding entry in experiment [1] is recorded as “no binding”.

B4: lamin B3 (protein, UniProt P21619-2 1-474)
chain: MGESESMRGTGEGCGRDCPEAARPLMETVEGALPELRGRPLREYVKRRPRGLGKTPVEDPVKSEGAVGYPRTWNNHLRVPTREQEVRETRRRHERRLVEVDSSRQQEYDFKMAQALEDLRSQHDEQVRLYRVELEQTYQAKLDNAKLLSDQNDKAAHAAREELKEARMRVESLSYQLLGLQKQASAAENHIHELEEALAGERDKFRKMLDAKEQEMTEVRDAMQQQLAEYQELLDIKLALDMEISAYRKLLEGEEERLKLSPSPSSRITISRATSSSSSSSGVGMSVGQGRGKRRRLETEDTSGSPSRASRVSSGSRLAQQTVATGVVNIDEVDPEGRFVRLKNSSDKDQSLGNWRIKRQVLEGEDIAYKFTPKYVLRAGQTVTVWAAGAGATHSPPSTLVWKSQTNWGPGESFRTALVSADGEEVAVKAAKHSSVQGRENGEEEEEEEAEFGEEDLFHQQGDPRTTSRGCRLM
In the case of B4, the binding entry in experiment [2] was “binds”.
